Data taken from the supplement of paper PMC12823440, “Inhibitors supercharge kinase turnover through native proteolytic circuits” (Nature, 2025).
Where a name gives a salt, the structure may show the parent alone. The list shows a part of the results. Hit calls seldom repeat between salt and free forms of one compound.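 In K562 cells expressing nanoluciferase-fused kinases, luminescence was recorded at 4 h intervals between 2 and 18 h, normalized as percent of control with DMSO at 100% and a positive control at 0%. A significant (2 sigma) signal drop marks a time point as decreased. The authors' rule for a hit is not shown and takes in more than the number of time points.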

The chains behind the UniProt entries cited, without tags or fusion partners.
UniProt P29317, whole entry: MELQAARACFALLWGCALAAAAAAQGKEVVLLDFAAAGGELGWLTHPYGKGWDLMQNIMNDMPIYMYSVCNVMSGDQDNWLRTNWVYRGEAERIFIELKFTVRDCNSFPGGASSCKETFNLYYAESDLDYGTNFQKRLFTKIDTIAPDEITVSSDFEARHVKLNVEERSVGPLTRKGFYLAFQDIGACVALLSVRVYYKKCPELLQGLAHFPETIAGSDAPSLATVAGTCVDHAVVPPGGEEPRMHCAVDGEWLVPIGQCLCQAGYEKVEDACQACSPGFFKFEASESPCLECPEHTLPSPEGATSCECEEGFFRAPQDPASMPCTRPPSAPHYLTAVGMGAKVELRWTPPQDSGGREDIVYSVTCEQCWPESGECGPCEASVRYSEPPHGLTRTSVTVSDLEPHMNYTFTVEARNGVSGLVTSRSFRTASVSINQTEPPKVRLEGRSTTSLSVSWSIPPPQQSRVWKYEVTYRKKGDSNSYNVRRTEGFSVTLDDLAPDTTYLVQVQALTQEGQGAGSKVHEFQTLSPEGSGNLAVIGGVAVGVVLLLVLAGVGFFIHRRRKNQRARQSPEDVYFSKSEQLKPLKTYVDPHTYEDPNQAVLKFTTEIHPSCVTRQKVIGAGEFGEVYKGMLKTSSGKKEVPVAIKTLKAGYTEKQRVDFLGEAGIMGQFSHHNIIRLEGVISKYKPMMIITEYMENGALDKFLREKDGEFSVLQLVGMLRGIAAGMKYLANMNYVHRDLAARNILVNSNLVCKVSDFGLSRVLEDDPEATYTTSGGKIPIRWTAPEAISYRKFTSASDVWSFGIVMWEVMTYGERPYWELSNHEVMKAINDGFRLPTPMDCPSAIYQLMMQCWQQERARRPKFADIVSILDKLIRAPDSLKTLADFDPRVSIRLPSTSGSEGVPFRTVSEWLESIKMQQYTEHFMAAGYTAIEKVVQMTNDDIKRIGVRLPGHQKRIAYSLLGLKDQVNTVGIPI
UniProt P21860, whole entry: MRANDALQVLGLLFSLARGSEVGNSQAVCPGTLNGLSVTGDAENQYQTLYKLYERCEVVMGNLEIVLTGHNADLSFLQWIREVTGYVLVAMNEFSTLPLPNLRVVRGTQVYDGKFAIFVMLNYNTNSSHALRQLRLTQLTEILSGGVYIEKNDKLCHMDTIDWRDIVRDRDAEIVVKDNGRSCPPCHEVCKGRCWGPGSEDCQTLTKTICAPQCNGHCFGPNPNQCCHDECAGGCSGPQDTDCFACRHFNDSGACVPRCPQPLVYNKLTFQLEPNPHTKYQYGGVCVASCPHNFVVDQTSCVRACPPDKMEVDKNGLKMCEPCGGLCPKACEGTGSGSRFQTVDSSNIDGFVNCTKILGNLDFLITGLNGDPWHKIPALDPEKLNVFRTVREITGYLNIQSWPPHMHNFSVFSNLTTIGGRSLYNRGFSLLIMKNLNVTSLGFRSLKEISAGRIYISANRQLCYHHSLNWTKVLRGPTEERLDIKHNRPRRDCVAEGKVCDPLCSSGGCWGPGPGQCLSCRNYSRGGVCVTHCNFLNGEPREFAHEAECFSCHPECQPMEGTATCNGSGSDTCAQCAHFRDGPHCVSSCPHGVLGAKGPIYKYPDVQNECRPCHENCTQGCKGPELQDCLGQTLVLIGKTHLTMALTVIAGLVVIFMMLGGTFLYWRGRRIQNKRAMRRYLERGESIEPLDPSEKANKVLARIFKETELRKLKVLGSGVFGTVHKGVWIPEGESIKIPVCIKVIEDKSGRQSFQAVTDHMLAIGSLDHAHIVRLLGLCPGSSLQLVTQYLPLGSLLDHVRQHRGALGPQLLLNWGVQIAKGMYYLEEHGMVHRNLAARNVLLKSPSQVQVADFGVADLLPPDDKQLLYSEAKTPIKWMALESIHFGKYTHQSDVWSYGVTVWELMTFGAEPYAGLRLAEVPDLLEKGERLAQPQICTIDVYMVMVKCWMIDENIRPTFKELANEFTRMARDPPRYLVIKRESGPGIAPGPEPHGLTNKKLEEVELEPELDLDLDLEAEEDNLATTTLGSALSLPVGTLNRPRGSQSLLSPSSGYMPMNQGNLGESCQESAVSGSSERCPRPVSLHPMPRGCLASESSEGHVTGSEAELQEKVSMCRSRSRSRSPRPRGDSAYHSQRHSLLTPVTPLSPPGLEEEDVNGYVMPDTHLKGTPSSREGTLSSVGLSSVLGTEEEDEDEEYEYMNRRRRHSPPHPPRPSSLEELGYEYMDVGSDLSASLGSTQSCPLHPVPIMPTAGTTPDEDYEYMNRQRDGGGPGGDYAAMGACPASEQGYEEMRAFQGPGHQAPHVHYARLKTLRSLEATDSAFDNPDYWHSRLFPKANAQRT
UniProt Q15303, whole entry R711C: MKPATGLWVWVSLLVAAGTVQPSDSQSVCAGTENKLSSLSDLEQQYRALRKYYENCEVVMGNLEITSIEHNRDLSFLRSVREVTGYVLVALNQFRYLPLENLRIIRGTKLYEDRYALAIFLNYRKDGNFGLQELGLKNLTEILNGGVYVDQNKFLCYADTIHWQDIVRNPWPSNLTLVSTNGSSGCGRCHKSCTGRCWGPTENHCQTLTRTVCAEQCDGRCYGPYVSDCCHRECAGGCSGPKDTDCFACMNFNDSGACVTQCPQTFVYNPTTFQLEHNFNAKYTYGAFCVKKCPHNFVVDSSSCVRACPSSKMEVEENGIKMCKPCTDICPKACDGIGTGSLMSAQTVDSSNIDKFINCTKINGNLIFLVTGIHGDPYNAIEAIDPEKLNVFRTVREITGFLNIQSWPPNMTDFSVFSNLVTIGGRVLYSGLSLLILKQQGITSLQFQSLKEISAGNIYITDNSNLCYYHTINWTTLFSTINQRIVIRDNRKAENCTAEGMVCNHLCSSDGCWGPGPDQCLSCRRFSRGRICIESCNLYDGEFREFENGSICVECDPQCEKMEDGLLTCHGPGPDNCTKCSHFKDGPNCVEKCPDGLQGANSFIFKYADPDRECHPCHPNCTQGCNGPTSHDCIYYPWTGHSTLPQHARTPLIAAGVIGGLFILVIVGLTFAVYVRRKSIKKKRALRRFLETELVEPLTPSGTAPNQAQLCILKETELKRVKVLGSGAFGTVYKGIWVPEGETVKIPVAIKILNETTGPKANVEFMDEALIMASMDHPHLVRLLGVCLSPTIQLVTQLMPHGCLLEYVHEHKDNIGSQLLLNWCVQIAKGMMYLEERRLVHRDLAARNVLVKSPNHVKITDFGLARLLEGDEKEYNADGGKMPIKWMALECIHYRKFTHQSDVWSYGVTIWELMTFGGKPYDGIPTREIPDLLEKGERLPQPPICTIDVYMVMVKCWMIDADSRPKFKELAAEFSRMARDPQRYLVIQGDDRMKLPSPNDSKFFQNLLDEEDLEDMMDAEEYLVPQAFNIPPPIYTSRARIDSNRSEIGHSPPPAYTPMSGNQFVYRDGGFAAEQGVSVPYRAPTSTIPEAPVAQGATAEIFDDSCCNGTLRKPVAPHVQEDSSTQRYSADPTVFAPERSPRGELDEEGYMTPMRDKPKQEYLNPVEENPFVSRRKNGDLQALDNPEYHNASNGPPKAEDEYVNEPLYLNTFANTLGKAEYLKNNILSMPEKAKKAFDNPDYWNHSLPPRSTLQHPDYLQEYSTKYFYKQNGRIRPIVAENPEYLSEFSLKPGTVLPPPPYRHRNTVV

How the values were obtained:
Experiment in all cases: kinase-Nluc reporter destabilization hit call (1 = scored as downregulated) (binary); higher = compound decreases kinase abundance
Conditions in all cases: K562; 2-18 h
EGFR = EGFR (UniProt P00533)
EGFR_G719S = EGFR_G719S (UniProt P00533)
EGFR_G719S_T790M = EGFR_G719S_T790M (UniProt P00533)
EGFR_L718V = EGFR_L718V (UniProt P00533)
EGFR_L858R = EGFR_L858R (UniProt P00533)
EGFR_L861Q = EGFR_L861Q (UniProt P00533)
EGFR_T790M = EGFR_T790M (UniProt P00533)
EPHA2 = EPHA2 (UniProt P29317)
ERBB3 = ERBB3 (UniProt P21860)
[1] = target: ERBB4_R711C (clone: ERBB4_mut) (UniProt Q15303)

Measured: kinase-Nluc reporter destabilization hit call

CC(C)(O)c1cc(Nc2cc(Oc3cn(C4CC4)nc3C3CCOCC3)ccn2)ccn1 (10 µM)
inactive: EGFR 0 | EGFR_G719S 0 | EGFR_G719S_T790M 0 | EGFR_L718V 0 | EGFR_L858R 0 | EGFR_L861Q 0 | EGFR_T790M 0 | EPHA2 = 0 | ERBB3 = 0 | [1] 0

CC(C)=C/C=C1\O[C@@H]2CC(C)=CC(=O)[C@@H]2[C@]1(C)O [Bisabolangelone] (10 µM)
inactive: EGFR 0 | EGFR_G719S 0 | EGFR_G719S_T790M 0 | EGFR_L718V 0 | EGFR_L858R 0 | EGFR_L861Q 0 | EGFR_T790M 0 | EPHA2 = 0 | ERBB3 = 0 | [1] 0

O=c1ccc2cc(O)c(O)cc2o1 [Esculetin] (10 µM)
inactive: EGFR 0 | EGFR_G719S 0 | EGFR_G719S_T790M 0 | EGFR_L718V 0 | EGFR_L858R 0 | EGFR_L861Q 0 | EGFR_T790M 0 | EPHA2 = 0 | ERBB3 = 0 | [1] 0

C=CCN(/C=C1/C(=O)O[C@H](COC)[C@@]2(C)C1=C(O)C(=O)C1=C2[C@H](OC(C)=O)C[C@]2(C)C(=O)CC[C@@H]12)CC=C [Sonolisib] (2.5 µM)
inactive: EGFR 0 | EGFR_G719S 0 | EGFR_G719S_T790M 0 | EGFR_L718V 0 | EGFR_L858R 0 | EGFR_L861Q 0 | EGFR_T790M 0 | EPHA2 = 0 | ERBB3 = 0 | [1] 0

Arranged by formula weight (descending): 3 of the compounds above
C=CCN(/C=C1/C(=O)O[C@H](COC)[C@@]2(C)C1=C(O)C(=O)C1=C2[C@H](OC(C)=O)C[C@]2(C)C(=O)CC[C@@H]12)CC=C [Sonolisib] (2.5 µM)
inactive: EGFR 0 | EGFR_G719S 0 | EGFR_G719S_T790M 0 | EGFR_L718V 0 | EGFR_L858R 0 | EGFR_L861Q 0 | EGFR_T790M 0 | EPHA2 = 0 | ERBB3 = 0 | [1] 0

CC(C)=C/C=C1\O[C@@H]2CC(C)=CC(=O)[C@@H]2[C@]1(C)O [Bisabolangelone] (10 µM)
inactive: EGFR 0 | EGFR_G719S 0 | EGFR_G719S_T790M 0 | EGFR_L718V 0 | EGFR_L858R 0 | EGFR_L861Q 0 | EGFR_T790M 0 | EPHA2 = 0 | ERBB3 = 0 | [1] 0

O=c1ccc2cc(O)c(O)cc2o1 [Esculetin] (10 µM)
inactive: EGFR 0 | EGFR_G719S 0 | EGFR_G719S_T790M 0 | EGFR_L718V 0 | EGFR_L858R 0 | EGFR_L861Q 0 | EGFR_T790M 0 | EPHA2 = 0 | ERBB3 = 0 | [1] 0

Going on with the list.

C=CC(=O)N[C@H]1CCOC[C@H]1Nc1ncc2cc(-c3c(Cl)c(OC)cc(OC)c3Cl)ccc2n1 [Fisogatinib] (10 µM)
inactive: EGFR 0 | EGFR_G719S 0 | EGFR_G719S_T790M 0 | EGFR_L718V 0 | EGFR_L858R 0 | EGFR_L861Q 0 | EGFR_T790M 0 | EPHA2 = 0 | ERBB3 = 0 | [1] 0

CCCC[C@H](CO)Nc1nc(NC)ncc1OC [Interferon receptor inducer-1] (10 µM)
inactive: EGFR 0 | EGFR_G719S 0 | EGFR_G719S_T790M 0 | EGFR_L718V 0 | EGFR_L858R 0 | EGFR_L861Q 0 | EGFR_T790M 0 | EPHA2 = 0 | ERBB3 = 0 | [1] 0

C[C@H](Nc1ccc2c(c1)OCCn1cc(N3C(=O)OC[C@H]3C(F)F)nc1-2)C(N)=O (10 µM)
inactive: EGFR 0 | EGFR_G719S 0 | EGFR_G719S_T790M 0 | EGFR_L718V 0 | EGFR_L858R 0 | EGFR_L861Q 0 | EGFR_T790M 0 | EPHA2 = 0 | ERBB3 = 0 | [1] 0

Clc1ccc(Nc2cccc(-c3cn[nH]c3)c2)cc1 (10 µM)
inactive: EGFR 0 | EGFR_G719S 0 | EGFR_G719S_T790M 0 | EGFR_L718V 0 | EGFR_L858R 0 | EGFR_L861Q 0 | EGFR_T790M 0 | EPHA2 = 0 | ERBB3 = 0 | [1] 0

Nc1n[nH]c(N)c1N=Nc1ccc(O)cc1 (10 µM)
inactive: EGFR 0 | EGFR_G719S 0 | EGFR_G719S_T790M 0 | EGFR_L718V 0 | EGFR_L858R 0 | EGFR_L861Q 0 | EGFR_T790M 0 | EPHA2 = 0 | ERBB3 = 0 | [1] 0

CCCCCC1CC1CC1CC1CCCCCCCC(=O)O (stereo not given) (10 µM)
inactive: EGFR 0 | EGFR_G719S 0 | EGFR_G719S_T790M 0 | EGFR_L718V 0 | EGFR_L858R 0 | EGFR_L861Q 0 | EGFR_T790M 0 | EPHA2 = 0 | ERBB3 = 0 | [1] 0

O=C(Nc1nccs1)C(c1cc(F)ccc1O)N1Cc2ccccc2C1=O (stereo not given) (10 µM)
inactive: EGFR 0 | EGFR_G719S 0 | EGFR_G719S_T790M 0 | EGFR_L718V 0 | EGFR_L858R 0 | EGFR_L861Q 0 | EGFR_T790M 0 | EPHA2 = 0 | ERBB3 = 0 | [1] 0

Cc1cc([N+](=O)[O-])c(NS(=O)(=O)c2cccc(C(=O)O)c2)cc1-c1cccnc1 [Alofanib] (10 µM)
inactive: EGFR 0 | EGFR_G719S 0 | EGFR_G719S_T790M 0 | EGFR_L718V 0 | EGFR_L858R 0 | EGFR_L861Q 0 | EGFR_T790M 0 | EPHA2 = 0 | ERBB3 = 0 | [1] 0

O=C1C(=Cc2ccc(O)c(O)c2)Oc2ccccc21 (2.5 µM)
inactive: EGFR 0 | EGFR_G719S 0 | EGFR_G719S_T790M 0 | EGFR_L718V 0 | EGFR_L858R 0 | EGFR_L861Q 0 | EGFR_T790M 0 | EPHA2 = 0 | ERBB3 = 0 | [1] 0

Cn1cc(-c2ccc3ncc(Cc4ccc5ncccc5c4)n3n2)cn1 (10 µM)
inactive: EGFR 0 | EGFR_G719S 0 | EGFR_G719S_T790M 0 | EGFR_L718V 0 | EGFR_L858R 0 | EGFR_L861Q 0 | EGFR_T790M 0 | EPHA2 = 0 | ERBB3 = 0 | [1] 0

COc1c(OCCCN2CCOCC2)ccc2c3n(c(=NC(=O)c4cnc(N)nc4)nc12)CCN3 [Copanlisib (dihydrochloride)] (10 µM)
inactive: EGFR 0 | EGFR_G719S 0 | EGFR_G719S_T790M 0 | EGFR_L718V 0 | EGFR_L858R 0 | EGFR_L861Q 0 | EGFR_T790M 0 | EPHA2 = 0 | ERBB3 = 0 | [1] 0

CC(=O)NCC(=O)N[C@@H](C)C(=O)N[C@@H](CCC(N)=O)C(=O)N[C@@H](Cc1ccccc1)C(=O)N[C@@H](CO)C(=O)N[C@@H](CCCCN)C(=O)N[C@H](C(=O)N[C@@H](C)C(=O)N[C@@H](C)C(=O)N[C@@H](CCCCN)C(=O)O)[C@@H](C)O (10 µM)
inactive: EGFR 0 | EGFR_G719S 0 | EGFR_G719S_T790M 0 | EGFR_L718V 0 | EGFR_L858R 0 | EGFR_L861Q 0 | EGFR_T790M 0 | EPHA2 = 0 | ERBB3 = 0 | [1] 0

CC[C@@H]1CN(C(=O)NCC(F)(F)F)C[C@@H]1c1cnc2cnc3[nH]ccc3n12 [Upadacitinib] (10 µM)
inactive: EGFR 0 | EGFR_G719S 0 | EGFR_G719S_T790M 0 | EGFR_L718V 0 | EGFR_L858R 0 | EGFR_L861Q 0 | EGFR_T790M 0 | EPHA2 = 0 | ERBB3 = 0 | [1] 0

Cc1cccc(Cn2nc(C)c3c(NC(=O)c4csc5c(N)ncnc45)cccc32)n1 (10 µM)
inactive: EGFR 0 | EGFR_G719S 0 | EGFR_G719S_T790M 0 | EGFR_L718V 0 | EGFR_L858R 0 | EGFR_L861Q 0 | EGFR_T790M 0 | EPHA2 = 0 | ERBB3 = 0 | [1] 0
